According to article PMC12591158:
Results are given in words; binding and its absence hold for the method and conditions named. For some assays here: Binding seen in cells or lysates may run through a third protein. Some binding calls cover weakened binding; strength is not graded here. For some assays here: Where a sequence is shown, tags or fusion partners need not be part of it.

Sequences of proteins named here, by UniProt entry; tags and fusion partners are left off. A change or cut given only in a name is not applied to a line headed by its entry. A line that says so, or that is headed by a name, gives the form on record, which may keep a tag or linker. Residues count along the entry.
UniProt Q9Y572: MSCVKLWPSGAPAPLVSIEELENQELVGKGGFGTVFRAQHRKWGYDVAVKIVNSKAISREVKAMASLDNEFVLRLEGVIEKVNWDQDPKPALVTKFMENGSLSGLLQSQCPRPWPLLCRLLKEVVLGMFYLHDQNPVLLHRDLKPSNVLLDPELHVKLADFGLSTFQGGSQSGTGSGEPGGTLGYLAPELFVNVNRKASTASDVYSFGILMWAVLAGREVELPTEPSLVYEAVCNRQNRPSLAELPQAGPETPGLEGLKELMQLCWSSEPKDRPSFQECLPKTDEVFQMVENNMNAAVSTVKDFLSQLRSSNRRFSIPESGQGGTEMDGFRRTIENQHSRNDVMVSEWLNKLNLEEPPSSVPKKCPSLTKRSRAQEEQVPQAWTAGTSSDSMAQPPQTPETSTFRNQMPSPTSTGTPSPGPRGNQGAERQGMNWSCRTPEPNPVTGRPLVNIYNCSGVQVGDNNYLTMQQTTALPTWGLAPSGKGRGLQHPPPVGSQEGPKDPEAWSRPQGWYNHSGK
UniProt P0DTC6: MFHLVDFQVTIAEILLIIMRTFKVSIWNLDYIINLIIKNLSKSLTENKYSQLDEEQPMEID
UniProt P0C6X6, residues 5298-5900: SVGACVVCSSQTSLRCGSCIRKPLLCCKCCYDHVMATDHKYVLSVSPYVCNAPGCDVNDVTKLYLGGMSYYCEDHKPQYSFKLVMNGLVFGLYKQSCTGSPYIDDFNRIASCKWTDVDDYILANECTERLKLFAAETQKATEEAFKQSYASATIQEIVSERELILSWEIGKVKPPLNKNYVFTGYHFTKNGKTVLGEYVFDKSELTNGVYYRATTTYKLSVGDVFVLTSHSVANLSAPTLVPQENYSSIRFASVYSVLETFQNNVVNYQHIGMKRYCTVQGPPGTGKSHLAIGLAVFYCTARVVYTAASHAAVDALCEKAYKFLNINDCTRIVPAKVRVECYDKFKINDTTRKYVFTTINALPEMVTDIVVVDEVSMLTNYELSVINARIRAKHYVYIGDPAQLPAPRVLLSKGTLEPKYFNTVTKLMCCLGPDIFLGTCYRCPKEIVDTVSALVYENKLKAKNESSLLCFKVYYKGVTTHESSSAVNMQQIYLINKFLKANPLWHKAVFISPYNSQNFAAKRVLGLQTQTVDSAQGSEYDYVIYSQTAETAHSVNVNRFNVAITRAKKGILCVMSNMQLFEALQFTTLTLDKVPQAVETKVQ
UniProt Q14790: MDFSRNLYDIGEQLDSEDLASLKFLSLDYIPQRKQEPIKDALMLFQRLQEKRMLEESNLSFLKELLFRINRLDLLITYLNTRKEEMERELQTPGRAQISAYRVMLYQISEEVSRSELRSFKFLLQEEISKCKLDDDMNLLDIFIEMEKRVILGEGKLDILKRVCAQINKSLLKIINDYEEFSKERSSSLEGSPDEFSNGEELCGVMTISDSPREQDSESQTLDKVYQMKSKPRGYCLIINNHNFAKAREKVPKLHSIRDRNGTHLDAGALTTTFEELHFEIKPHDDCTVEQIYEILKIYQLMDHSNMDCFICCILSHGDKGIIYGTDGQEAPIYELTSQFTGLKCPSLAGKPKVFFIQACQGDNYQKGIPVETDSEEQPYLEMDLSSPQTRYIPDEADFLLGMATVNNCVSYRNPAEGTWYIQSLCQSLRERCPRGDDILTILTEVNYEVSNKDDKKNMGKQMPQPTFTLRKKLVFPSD
His-tagged caspase-8-C/A, purified (Q14790, form named): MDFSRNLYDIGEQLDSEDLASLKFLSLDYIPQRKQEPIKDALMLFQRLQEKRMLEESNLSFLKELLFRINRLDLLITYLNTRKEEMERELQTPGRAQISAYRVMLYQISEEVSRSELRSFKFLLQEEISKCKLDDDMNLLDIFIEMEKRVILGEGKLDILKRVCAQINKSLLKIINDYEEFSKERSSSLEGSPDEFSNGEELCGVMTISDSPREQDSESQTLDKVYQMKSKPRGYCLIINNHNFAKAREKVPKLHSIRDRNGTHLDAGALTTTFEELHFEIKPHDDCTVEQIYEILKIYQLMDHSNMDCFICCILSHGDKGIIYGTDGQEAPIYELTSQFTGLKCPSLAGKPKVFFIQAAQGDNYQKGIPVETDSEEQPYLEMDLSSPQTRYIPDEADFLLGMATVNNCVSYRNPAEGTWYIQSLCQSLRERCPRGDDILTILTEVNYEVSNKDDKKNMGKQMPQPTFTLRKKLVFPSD

What was measured:
[1] = molecular target: RIPK3 in HT29-ZBP1 inducible cell lines (human (endogenous in HT29)) (UniProt Q9Y572); test: co-IP; HT29-ZBP1 inducible stable cell lines with or without inducible NSP13 (SARS2, OC43 or SARS2-delRHIM), 500 ng/mL Dox plus zVAD for 20 h; Flag IP, RIPK3 IP or ZBP1 IP; NP-40 lysis buffer
[2] = molecular target: T1, GST-ORF6-C, purified (SARS-CoV-2) (UniProt P0DTC6); test: pull-down; GST pull-down: 1 µg GST-tagged protein with 1 µg His-tagged caspase-8-C/A in 250 µL NP-40 lysis buffer, 4 h at 4 °C, Glutathione Resin overnight; washes with 1% NP-40, 500 mM NaCl, 50 mM HEPES pH 7.5; both purified
T1 sequence: SLTENKYSQLDEEQPMEID

Substance | binding [1] | binding [2]
NSP13 from hCoV-OC43, Dox-inducible in HT29-ZBP1-OC43-NSP13 cells (from UniProt P0C6X6 5298-5900) (enzyme) | binds | –
His-tagged caspase-8-C/A, purified (from UniProt Q14790 1-479) (enzyme) | – | binds
